In patent US4254111A, “Sterolin products” (Roecar Holdings (Netherlands Antilles) NV, priority 1978, dated 1981):
The name of at least one read-out is uncertain. At least one structure is not confirmed: it was looked up by name or label, or the drawing left a doubt.

Test: Acute toxicity after a single oral or parenteral dose
Format: in vivo, male Sprague-Dawley rats
Conditions: examined after 7 days
Method: The test substance was suspended in a 1% m/v Tylose® solution made up with distilled water. The selected test doses of the compounds were administered by force feeding at the rate of 1.0 ml/100 g body weight 24.0 hrs and 1.0 hour before the intra-plantar administration of the phlogegenic agent. Brewer's Yeast served as the inflammation-inducing substance and was injected at the rate of 0.1 ml of a 2% suspension made up in sterile saline into the right hind paw. (The left hind paw was injected with 0.1 ml saline only and served as the control foot.)
Male rats of Sprague-Dawley strain and with a weight of 250-350 g were injected intraperitoneally with 0.1-0.5 ml/100 g body weight of an aqueous solution or suspension. Oral administration was carried out as described under (a). Examination of the acute toxicity was carried out after 7 days.

Molecule | Acute toxicity after a single dose, oral [mg/kg]
CCC(CCC(C)C1CCC2C3CC=C4CC(OC5OC(COC(=O)CCC(=O)O)C(OC(=O)CCC(=O)O)C(OC(=O)CCC(=O)O)C5OC(=O)CCC(=O)O)CCC4(C)C3CCC12C)C(C)C (centres unmarked) [S.G. tetrahemisuccinate] | > 1000
sitosteryl β-D-glucoside dihemisuccinate [S.G. dihemisuccinate] | > 1000
